Test [1] addresses T1, CRY2 (in HEK293T/17 cells, S1 Fig C) (mouse) (UniProt Q9R194).
T1 sequence: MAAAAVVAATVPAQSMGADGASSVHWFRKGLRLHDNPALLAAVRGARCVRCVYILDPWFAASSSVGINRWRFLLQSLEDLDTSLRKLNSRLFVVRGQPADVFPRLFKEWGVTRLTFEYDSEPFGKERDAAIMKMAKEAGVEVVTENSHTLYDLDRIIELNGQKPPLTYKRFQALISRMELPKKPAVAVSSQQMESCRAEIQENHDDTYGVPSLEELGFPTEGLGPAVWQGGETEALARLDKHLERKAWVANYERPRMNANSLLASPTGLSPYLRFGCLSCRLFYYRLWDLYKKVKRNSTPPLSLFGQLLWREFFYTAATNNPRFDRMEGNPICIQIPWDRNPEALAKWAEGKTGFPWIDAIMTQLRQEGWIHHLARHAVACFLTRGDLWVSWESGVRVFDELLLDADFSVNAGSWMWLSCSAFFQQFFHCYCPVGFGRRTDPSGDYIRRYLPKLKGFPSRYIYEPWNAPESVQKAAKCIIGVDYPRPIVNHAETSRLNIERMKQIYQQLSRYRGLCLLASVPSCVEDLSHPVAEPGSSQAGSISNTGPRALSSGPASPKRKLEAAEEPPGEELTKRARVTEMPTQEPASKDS
Description: co-IP; HEK293T/17 cells, 10 uM MG132 for 6 hours, lysed with IP Buffer, immunoprecipitation with anti-Myc or anti-FLAG antibody; normal mouse IgG as negative control.

Protein sequences, listed by entry. Tags and fused reporters are not part of them.
UniProt Q16531: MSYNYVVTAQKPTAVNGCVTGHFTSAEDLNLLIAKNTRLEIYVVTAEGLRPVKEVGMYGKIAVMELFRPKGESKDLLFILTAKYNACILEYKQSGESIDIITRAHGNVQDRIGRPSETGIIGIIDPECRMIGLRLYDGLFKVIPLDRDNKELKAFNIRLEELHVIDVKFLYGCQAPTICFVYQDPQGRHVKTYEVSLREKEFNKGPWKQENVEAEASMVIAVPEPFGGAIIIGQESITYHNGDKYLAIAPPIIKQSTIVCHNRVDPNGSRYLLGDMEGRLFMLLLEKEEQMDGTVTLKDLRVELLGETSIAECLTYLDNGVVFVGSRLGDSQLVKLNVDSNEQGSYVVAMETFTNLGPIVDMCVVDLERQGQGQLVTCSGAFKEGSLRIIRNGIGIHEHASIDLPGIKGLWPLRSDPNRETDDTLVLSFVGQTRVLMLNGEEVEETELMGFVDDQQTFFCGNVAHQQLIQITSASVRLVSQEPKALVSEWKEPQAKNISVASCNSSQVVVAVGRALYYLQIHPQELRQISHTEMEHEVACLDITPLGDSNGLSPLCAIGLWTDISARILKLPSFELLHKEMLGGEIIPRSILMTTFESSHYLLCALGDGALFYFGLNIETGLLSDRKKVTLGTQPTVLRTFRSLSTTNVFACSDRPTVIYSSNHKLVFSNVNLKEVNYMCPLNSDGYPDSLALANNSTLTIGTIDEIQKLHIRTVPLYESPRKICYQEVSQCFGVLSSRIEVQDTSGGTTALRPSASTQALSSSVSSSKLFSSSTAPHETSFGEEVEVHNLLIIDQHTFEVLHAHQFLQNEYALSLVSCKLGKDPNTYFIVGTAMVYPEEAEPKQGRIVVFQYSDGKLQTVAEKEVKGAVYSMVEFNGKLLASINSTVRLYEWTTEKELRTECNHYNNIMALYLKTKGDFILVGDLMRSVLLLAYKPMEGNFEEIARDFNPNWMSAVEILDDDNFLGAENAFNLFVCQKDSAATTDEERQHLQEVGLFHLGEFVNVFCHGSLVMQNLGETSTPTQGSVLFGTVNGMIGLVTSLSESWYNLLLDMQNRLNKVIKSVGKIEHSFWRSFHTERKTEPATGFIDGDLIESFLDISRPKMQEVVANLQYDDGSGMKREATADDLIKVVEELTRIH
UniProt Q13263: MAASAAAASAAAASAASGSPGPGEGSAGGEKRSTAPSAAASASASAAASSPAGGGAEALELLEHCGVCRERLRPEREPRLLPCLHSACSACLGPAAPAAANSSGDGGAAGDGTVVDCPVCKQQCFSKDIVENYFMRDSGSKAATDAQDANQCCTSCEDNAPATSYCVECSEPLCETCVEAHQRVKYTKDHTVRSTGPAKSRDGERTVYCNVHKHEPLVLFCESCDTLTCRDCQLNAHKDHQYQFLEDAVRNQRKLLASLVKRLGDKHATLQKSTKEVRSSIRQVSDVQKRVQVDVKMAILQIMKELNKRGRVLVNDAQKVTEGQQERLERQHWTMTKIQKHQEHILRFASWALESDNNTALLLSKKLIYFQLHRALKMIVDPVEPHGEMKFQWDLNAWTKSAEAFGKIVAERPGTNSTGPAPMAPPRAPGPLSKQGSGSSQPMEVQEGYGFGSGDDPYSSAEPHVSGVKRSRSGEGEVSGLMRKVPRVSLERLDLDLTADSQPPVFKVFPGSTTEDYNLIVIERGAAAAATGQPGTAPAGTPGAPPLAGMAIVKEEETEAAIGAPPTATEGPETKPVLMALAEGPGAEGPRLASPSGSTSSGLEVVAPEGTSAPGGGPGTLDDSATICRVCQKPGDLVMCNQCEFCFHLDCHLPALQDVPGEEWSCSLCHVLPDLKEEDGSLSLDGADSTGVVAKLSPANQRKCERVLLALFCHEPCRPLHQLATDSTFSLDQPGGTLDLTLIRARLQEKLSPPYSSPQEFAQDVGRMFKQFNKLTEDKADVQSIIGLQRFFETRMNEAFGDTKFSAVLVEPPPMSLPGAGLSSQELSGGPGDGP
UniProt Q9NXV2: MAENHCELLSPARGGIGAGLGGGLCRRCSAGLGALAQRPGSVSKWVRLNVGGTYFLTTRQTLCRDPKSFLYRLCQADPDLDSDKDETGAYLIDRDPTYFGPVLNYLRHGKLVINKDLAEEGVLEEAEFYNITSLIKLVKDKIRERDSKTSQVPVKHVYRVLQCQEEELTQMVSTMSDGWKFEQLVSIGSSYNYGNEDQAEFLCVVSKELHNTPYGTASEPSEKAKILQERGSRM
UniProt Q13148: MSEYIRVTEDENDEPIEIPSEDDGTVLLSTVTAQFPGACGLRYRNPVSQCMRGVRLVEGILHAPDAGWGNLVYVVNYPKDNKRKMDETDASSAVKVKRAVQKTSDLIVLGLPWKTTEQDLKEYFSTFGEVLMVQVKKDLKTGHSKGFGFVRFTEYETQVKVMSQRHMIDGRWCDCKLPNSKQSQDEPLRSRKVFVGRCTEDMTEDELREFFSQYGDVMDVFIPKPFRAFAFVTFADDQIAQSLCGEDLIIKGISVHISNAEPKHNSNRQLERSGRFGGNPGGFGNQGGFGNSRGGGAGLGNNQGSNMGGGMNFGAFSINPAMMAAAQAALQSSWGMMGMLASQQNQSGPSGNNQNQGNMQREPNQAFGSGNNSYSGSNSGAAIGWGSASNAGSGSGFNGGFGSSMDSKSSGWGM

For another test, the target named is T2, Myc-CRY1 (mouse) (UniProt P97784).
T2 sequence: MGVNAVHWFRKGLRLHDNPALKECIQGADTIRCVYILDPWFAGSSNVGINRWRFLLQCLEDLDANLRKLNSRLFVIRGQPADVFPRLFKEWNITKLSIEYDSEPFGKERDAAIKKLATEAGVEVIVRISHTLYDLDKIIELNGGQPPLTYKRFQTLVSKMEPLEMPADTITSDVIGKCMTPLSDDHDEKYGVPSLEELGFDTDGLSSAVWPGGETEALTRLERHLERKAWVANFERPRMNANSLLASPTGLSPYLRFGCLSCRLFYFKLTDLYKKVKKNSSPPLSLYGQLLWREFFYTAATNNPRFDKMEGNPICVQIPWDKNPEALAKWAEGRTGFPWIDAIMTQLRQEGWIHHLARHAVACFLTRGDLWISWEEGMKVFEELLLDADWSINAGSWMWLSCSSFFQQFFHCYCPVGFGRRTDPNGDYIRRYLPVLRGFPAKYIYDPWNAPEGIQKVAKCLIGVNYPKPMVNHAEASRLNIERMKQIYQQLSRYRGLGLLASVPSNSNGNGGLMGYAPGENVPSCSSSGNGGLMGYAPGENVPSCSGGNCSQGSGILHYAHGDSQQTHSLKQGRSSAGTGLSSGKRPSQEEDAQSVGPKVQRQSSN
The description is as above.

For test [2], the target named is T3, FLAG-CRY2 (in HEK293 cells) (mouse) (UniProt Q9R194).
T3 sequence: T1 sequence
Briefly: co-IP; HEK293 cells expressing FLAG-CRY2, or Myc-CRY2 and/or FLAG-TDP-43, lysed with IP Buffer, immunoprecipitation with anti-FLAG antibody, western blotting.

Results are given in words; binding and its absence hold for the method and conditions named. Binding seen in cells or lysates may run through a third protein. Some binding calls cover weakened binding; strength is not graded here. For some assays here: Tags and fused reporters may be left off the sequences shown.

As for “DDB1 (in HEK293T/17 cells) (from UniProt Q16531 1-1140)”, the binding result (in test [1]; in the test with Myc-CRY1 (mouse)) was “binds” in each case.

For the substance FLAG-TRIM28 (from UniProt Q13263 1-835), the binding result in the test with Myc-CRY1 (mouse) is reported as “binds”. Regarding KCTD5 (from UniProt Q9NXV2 1-234), the binding result with Myc-CRY1 (mouse) is listed as “binds”. As to “endogenous TDP-43 (HEK293) (from UniProt Q13148 1-414)”, the binding entry in test [2] is “binds”.

These data come from article PMC4849774.
